The target of test [1] is NDUFS7 with C-terminal FLAG and StrepII tags (human) (UniProt O75251). Nature of the test: affinity purification with mass spectrometry; SILAC-labeled HEK293T cells overexpressing tagged-NDUFS7, control cells overexpressing tagged-NDUFB3; Strep-tag II affinity purification from mitoplasts, samples mixed, SDS-PAGE, tryptic digestion, quantitative mass spectrometry; both labeling orientations.

Amino acid sequences for entries named in this document (tags omitted). Residues count along the entry.
UniProt O75251, residues 39-213: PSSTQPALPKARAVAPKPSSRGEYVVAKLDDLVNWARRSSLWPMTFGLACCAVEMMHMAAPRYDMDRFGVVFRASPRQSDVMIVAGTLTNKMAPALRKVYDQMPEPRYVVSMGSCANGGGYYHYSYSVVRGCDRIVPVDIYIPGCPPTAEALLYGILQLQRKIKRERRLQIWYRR
UniProt O00217, residues 35-210: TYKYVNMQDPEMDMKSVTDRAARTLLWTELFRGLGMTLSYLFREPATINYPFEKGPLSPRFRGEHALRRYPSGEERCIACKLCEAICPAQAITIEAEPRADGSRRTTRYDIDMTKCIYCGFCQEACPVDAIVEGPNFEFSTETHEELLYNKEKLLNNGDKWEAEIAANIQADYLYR
UniProt Q9P032: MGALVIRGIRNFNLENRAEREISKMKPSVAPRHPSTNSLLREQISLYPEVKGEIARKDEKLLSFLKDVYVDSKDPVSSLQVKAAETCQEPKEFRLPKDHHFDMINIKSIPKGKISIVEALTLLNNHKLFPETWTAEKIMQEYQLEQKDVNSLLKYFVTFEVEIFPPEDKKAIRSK
UniProt Q9BU61: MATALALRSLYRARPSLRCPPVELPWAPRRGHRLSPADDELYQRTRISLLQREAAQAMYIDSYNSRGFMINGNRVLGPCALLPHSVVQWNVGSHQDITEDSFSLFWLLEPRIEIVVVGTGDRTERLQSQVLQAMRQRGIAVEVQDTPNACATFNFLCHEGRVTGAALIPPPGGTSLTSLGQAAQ
UniProt Q16718: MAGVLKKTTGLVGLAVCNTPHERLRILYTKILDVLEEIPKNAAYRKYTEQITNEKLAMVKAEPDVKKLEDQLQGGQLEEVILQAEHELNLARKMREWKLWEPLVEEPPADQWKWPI
UniProt Q9UBS4, residues 23-358: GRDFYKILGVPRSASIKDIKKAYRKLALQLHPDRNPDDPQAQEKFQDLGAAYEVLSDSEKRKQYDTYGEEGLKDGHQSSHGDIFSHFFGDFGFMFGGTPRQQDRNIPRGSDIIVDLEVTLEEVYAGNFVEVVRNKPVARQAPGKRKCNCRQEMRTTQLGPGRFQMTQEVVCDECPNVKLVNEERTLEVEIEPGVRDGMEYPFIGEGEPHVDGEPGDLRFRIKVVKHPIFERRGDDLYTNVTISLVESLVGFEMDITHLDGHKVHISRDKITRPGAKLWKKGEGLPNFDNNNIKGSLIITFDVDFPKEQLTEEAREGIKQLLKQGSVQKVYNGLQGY
UniProt P03886: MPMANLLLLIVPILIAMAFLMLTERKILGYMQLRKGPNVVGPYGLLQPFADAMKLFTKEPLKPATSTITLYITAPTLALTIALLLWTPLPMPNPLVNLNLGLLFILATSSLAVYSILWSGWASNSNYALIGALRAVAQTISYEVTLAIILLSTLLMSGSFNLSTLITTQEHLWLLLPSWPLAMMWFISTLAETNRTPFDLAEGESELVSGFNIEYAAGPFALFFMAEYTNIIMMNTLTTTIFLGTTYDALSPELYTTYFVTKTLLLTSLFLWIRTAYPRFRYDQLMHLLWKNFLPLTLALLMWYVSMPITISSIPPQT

In test [2] the target is T1, NDUFAF5 with C-terminal FLAG and StrepII tags (human) (UniProt Q5TEU4).
T1 sequence: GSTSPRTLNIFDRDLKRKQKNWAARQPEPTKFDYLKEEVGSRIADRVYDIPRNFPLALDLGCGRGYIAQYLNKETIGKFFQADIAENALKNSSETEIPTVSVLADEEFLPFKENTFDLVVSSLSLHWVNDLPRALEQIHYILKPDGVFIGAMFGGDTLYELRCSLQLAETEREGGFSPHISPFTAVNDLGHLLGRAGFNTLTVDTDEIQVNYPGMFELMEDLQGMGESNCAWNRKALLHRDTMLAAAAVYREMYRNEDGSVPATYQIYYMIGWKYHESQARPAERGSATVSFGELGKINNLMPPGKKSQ
Nature of the test: affinity purification with mass spectrometry; SILAC-labeled HEK293T cells overexpressing tagged-NDUFAF5, control cells overexpressing tagged-METTL12; Strep-tag II affinity purification from mitoplasts, samples mixed, SDS-PAGE, tryptic digestion, quantitative mass spectrometry; both labeling orientations.

Test [3] deals with NDUFS7 with C-terminal FLAG and StrepII tags (human) (UniProt O75251). Briefly: affinity purification with mass spectrometry; SILAC-labeled HEK293T cells overexpressing tagged-NDUFS7, control cells overexpressing tagged-NDUFB3; Strep-tag II affinity purification from mitoplasts, samples mixed, SDS-PAGE, tryptic digestion, quantitative mass spectrometry; both labeling orientations. This is another data set of the same source.

Like-named read-outs stand apart in the source and are kept apart here. Results are given in words; binding and its absence hold for the method and conditions named. Binding seen in cells or lysates may run through a third protein. A yes stands for co-enrichment or nearness to the bait. Other partners may have been found. For part of these data: A no says only that the protein was not detected with the bait. For part of these data: Where a sequence is shown, tags or fusion partners need not be part of it.

“complex I subunit NDUFS8 (from UniProt O00217 35-210)”: the binding entry in test [1] is recorded as “binds”.
Same read-out and setting: with “assembly factor NDUFAF4 (from UniProt Q9P032 1-175)” the entry was “binds”; with “assembly factor NDUFAF3 (from UniProt Q9BU61 1-184)”, “binds”; with “complex I subunit NDUFA5 (from UniProt Q16718 1-116)”, “binds”.
For the molecule “DNAJ homolog subfamily B member 11 (from UniProt Q9UBS4 23-358)”, the binding result in test [2] is reported as “binds”.
On to MT-ND1 (from UniProt P03886 1-318), for which the binding result in test [2] is on record as “no binding”.
Same read-out and setting: for “NDUFS7 subunit of complex I (endogenous) (from UniProt O75251 39-213)” the value was “binds”.

B1: stroma cell-derived factor 2 (protein, UniProt Q99470 19-211)
chain: SSLGVVTCGSVVKLLNTRHNVRLHSHDVRYGSGSGQQSVTGVTSVDDSNSYWRIRGKSATVCERGTPIKCGQPIRLTHVNTGRNLHSHHFTSPLSGNQEVSAFGEEGEGDYLDDWTVLCNGPYWVRDGEVRFKHSSTEVLLSVTGEQYGRPISGQKEVHGMAQPSQNNYWKAMEGIFMKPSELLKAEAHHAEL
As to B1, the binding result in test [2] is on record as “binds”.

B2: stroma cell-derived factor 2-like (protein, UniProt Q9HCN8 29-221)
chain: AKTGAELVTCGSVLKLLNTHHRVRLHSHDIKYGSGSGQQSVTGVEASDDANSYWRIRGGSEGGCPRGSPVRCGQAVRLTHVLTGKNLHTHHFPSPLSNNQEVSAFGEDGEGDDLDLWTVRCSGQHWEREAAVRFQHVGTSVFLSVTGEQYGSPIRGQHEVHGMPSANTHNTWKAMEGIFIKPSVEPSAGHDEL
For B2, in test [2], the binding entry is given as “binds”.

B3: α-aminoadipic semialdehyde dehydrogenase (enzyme, UniProt P49419 27-539)
chain: AFMSTLLINQPQYAWLKELGLREENEGVYNGSWGGRGEVITTYCPANNEPIARVRQASVADYEETVKKAREAWKIWADIPAPKRGEIVRQIGDALREKIQVLGSLVSLEMGKILVEGVGEVQEYVDICDYAVGLSRMIGGPILPSERSGHALIEQWNPVGLVGIITAFNFPVAVYGWNNAIAMICGNVCLWKGAPTTSLISVAVTKIIAKVLEDNKLPGAICSLTCGGADIGTAMAKDERVNLLSFTGSTQVGKQVGLMVQERFGRSLLELGGNNAIIAFEDADLSLVVPSALFAAVGTAGQRCTTARRLFIHESIHDEVVNRLKKAYAQIRVGNPWDPNVLYGPLHTKQAVSMFLGAVEEAKKEGGTVVYGGKVMDRPGNYVEPTIVTGLGHDASIAHTETFAPILYVFKFKNEEEVFAWNNEVKQGLSSSIFTKDLGRIFRWLGPKGSDCGIVNVNIPTSGAEIGGAFGGEKHTGGGRESGSDAWKQYMRRSTCTINYSKDLPLAQGIKFQ
As to B3, the binding entry in test [3] is “binds”.

B4: iron-sulfur cluster scaffold homolog NFU1 (protein, UniProt Q9UMS0 10-254)
chain: GAAAVAAGLRRRFCHMLKNPYTIKKQPLHQFVQRPLFPLPAAFYHPVRYMFIQTQDTPNPNSLKFIPGKPVLETRTMDFPTPAAAFRSPLARQLFRIEGVKSVFFGPDFITVTKENEELDWNLLKPDIYATIMDFFASGLPLVTEETPSGEAGSEEDDEVVAMIKELLDTRIRPTVQEDGGDVIYKGFEDGIVQLKLQGSCTSCPSSIITLKNGIQNMLQFYIPEVEGVEQVMDDESDEKEANSP
For the molecule B4, the binding entry in test [2] is recorded as “binds”.

B5: NDUFAF5 (endogenous) (enzyme, UniProt Q5TEU4 37-345)
chain: T1 sequence
For the molecule B5, the binding result in test [3] was “binds”.
